According to the supplement of paper PMC12067093, “Discovery and optimisation of a covalent ligand for TRIM25 and its application to targeted protein ubiquitination” (Chemical Science, 2025):
This is one part of the list.

Sequences of proteins named here, by UniProt entry; tags and fusion partners are left off. A change or cut given only in a name is not applied to a line headed by its entry.
UniProt Q07866: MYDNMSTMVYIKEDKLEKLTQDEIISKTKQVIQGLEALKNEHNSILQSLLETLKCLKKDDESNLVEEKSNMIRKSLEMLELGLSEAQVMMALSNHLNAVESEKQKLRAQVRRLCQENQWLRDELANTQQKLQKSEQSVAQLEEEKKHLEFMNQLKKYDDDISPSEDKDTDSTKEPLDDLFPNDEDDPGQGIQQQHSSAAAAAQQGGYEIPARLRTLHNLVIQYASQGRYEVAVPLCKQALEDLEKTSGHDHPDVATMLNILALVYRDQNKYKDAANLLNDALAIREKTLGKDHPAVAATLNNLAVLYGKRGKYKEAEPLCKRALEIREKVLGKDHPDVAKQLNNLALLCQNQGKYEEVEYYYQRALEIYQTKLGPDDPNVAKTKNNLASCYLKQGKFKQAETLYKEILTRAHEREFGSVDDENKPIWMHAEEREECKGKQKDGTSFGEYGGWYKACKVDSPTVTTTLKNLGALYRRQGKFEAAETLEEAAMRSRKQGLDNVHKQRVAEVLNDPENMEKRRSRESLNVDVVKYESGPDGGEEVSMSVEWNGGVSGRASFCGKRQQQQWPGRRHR
UniProt P28838: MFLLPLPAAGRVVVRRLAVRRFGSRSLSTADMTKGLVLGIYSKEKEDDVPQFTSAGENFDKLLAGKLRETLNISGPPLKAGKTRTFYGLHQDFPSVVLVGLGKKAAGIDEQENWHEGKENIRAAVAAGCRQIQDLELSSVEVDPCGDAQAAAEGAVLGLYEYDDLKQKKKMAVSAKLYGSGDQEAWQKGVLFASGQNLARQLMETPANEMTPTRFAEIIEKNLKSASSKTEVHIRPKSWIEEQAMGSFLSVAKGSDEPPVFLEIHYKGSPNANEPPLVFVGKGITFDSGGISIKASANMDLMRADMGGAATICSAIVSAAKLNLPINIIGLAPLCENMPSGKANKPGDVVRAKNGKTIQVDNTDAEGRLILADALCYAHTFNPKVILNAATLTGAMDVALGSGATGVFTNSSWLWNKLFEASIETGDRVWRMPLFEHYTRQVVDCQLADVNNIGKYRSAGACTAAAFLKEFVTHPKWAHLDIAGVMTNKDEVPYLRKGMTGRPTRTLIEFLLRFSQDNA
UniProt Q9UMN6, whole entry, looked up: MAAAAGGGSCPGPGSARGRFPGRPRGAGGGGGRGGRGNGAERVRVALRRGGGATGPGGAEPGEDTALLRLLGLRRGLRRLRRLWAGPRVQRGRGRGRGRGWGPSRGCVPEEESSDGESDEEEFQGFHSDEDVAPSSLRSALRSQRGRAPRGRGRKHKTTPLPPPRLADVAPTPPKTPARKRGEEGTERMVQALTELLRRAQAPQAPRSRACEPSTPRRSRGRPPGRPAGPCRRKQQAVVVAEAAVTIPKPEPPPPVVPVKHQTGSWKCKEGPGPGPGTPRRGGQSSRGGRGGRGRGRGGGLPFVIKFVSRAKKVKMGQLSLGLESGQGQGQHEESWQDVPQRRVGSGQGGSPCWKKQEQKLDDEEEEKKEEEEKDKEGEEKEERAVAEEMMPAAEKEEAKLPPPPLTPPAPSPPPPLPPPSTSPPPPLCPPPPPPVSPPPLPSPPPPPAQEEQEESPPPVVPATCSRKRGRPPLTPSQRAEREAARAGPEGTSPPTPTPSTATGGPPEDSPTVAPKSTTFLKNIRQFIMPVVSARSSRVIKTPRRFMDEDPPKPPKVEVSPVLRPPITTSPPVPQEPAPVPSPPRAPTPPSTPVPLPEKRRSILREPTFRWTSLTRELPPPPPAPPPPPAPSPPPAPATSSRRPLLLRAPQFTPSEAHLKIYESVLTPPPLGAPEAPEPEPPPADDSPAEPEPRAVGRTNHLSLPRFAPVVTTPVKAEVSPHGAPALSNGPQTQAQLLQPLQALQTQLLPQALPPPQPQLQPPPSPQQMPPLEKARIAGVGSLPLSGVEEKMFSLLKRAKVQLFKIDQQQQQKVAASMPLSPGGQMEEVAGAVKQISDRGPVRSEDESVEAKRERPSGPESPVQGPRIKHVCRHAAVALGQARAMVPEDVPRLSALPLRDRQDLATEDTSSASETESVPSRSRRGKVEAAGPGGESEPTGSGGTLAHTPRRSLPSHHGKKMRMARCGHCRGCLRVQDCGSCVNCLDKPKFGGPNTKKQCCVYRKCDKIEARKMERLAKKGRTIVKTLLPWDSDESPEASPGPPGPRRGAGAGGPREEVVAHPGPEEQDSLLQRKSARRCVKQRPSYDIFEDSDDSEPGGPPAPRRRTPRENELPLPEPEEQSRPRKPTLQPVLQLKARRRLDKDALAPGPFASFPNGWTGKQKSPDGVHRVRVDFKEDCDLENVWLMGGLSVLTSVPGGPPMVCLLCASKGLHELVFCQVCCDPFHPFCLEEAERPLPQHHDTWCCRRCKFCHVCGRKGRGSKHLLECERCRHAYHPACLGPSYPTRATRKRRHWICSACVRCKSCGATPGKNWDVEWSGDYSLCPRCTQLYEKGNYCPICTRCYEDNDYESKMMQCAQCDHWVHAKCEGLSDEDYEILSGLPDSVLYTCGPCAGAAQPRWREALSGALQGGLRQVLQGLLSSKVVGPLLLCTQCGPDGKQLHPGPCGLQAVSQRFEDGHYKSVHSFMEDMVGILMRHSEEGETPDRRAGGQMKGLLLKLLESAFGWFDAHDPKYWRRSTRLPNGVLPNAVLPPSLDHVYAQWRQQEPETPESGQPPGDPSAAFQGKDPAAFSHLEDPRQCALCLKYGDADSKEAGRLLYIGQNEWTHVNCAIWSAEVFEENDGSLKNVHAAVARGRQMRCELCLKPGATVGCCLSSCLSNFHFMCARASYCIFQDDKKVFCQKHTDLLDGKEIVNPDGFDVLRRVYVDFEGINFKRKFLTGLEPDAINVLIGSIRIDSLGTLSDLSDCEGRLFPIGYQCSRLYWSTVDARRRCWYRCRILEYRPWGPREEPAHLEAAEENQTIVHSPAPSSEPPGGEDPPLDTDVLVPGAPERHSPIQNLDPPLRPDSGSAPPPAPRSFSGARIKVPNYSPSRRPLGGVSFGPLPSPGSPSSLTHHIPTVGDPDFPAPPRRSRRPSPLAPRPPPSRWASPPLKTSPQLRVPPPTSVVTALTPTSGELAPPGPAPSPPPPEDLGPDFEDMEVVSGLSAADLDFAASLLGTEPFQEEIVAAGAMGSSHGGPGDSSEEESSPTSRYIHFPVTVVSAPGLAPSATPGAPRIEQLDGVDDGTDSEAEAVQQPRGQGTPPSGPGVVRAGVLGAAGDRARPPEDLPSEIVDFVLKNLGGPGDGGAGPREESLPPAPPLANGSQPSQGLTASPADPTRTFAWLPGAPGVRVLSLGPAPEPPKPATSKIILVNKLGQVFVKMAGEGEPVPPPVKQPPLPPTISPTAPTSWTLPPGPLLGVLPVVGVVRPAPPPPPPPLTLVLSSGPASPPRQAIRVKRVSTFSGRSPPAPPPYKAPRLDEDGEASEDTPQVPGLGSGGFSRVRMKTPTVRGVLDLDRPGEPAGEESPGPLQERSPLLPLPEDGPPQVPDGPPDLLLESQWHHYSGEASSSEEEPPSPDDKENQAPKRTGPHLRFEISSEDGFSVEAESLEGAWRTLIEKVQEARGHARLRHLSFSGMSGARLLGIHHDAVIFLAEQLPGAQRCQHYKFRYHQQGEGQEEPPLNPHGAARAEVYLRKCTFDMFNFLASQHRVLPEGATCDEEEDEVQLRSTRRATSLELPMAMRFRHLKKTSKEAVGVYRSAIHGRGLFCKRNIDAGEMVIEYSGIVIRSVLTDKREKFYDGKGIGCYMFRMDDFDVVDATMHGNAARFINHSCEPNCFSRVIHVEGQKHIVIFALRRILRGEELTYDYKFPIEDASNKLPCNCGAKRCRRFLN
UniProt Q8NG31: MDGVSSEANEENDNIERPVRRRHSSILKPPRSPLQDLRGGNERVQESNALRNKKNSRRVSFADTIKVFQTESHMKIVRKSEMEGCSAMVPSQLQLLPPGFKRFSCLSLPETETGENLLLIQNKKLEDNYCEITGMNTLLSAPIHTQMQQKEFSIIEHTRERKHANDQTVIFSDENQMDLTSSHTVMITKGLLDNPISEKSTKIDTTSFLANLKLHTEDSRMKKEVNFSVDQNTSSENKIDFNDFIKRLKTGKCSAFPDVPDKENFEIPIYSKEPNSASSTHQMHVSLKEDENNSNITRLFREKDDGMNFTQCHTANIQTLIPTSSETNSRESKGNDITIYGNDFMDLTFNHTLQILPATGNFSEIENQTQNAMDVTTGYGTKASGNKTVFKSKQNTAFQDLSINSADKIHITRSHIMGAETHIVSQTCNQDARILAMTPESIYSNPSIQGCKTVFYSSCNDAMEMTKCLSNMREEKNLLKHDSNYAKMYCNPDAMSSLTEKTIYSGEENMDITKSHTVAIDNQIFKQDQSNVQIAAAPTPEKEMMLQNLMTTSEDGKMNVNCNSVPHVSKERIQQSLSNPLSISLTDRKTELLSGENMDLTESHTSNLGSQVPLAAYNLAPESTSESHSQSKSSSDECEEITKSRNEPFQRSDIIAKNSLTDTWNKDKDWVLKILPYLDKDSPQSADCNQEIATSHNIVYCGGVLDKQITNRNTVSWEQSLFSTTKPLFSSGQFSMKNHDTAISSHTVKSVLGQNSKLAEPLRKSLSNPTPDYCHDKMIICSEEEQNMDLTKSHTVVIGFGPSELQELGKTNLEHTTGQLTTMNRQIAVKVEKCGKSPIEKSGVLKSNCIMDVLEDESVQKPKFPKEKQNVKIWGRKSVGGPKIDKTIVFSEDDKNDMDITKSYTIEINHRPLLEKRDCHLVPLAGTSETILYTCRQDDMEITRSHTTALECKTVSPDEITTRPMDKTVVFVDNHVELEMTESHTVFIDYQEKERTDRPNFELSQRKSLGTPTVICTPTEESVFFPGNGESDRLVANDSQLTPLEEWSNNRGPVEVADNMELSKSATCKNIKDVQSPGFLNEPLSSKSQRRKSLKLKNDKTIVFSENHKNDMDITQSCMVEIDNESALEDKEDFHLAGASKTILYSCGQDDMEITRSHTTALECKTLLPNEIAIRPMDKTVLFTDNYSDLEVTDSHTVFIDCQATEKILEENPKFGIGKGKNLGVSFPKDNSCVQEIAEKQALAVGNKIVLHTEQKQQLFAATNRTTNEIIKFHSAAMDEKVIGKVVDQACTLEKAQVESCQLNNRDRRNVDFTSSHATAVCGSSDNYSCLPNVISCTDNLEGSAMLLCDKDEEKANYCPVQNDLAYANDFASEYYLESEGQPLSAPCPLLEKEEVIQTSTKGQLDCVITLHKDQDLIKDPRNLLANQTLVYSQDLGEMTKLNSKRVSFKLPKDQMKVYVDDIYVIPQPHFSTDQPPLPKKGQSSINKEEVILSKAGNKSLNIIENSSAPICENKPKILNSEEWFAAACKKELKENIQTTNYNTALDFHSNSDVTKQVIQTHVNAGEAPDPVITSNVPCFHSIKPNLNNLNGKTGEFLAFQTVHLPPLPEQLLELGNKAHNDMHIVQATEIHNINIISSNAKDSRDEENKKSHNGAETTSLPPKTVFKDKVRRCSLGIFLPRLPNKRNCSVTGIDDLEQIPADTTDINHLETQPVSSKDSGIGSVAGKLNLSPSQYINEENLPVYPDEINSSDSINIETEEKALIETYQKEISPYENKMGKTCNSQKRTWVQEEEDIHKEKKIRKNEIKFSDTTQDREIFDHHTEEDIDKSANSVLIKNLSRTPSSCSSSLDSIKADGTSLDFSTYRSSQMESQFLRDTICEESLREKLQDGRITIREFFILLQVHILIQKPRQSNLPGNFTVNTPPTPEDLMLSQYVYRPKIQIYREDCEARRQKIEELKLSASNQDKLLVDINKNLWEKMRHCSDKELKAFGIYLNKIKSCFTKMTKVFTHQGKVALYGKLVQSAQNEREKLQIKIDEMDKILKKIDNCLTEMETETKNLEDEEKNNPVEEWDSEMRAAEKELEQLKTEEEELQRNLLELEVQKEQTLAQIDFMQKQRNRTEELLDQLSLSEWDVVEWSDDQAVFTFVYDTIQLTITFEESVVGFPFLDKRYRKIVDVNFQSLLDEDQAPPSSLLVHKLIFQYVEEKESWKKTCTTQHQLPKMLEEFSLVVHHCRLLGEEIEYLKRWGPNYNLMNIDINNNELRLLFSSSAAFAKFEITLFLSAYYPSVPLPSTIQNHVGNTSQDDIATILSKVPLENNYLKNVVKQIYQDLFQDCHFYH
UniProt Q9NS86: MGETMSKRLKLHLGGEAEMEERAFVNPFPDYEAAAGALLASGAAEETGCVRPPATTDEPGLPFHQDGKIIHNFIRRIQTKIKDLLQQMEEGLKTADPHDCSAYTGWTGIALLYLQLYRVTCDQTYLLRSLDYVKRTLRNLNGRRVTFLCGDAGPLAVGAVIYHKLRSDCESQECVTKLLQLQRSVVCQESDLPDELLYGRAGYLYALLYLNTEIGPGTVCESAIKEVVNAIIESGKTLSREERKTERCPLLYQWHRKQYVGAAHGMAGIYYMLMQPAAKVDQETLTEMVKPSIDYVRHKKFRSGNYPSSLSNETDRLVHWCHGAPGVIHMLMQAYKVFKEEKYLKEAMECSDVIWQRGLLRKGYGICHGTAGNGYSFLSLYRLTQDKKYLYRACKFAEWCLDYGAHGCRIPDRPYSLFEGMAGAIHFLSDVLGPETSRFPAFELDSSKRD

Compound: Cc1cc(ccc1-c1ccccc1)C(=O)N1CCCN(CC1)C(=O)CCl [compound 10]
Assay: probe-labelled cysteine peptide fold change vs DMSO (competition) (log2 fold change); higher = less target engagement (more negative = stronger competition)
Conditions: THP-1, incubation time: 4 h
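Further: competitive profiling in live THP-1 cells: cysteine peptides tagged with an iodoacetamide desthiobiotin (IA-DTB) probe, intensity after compound treatment relative to DMSO-treated cells.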

Target	probe-labelled cysteine peptide fold change (10 µM)	probe-labelled cysteine peptide fold change (50 µM)
KLC1_Q07866_559_ASFCGK (UniProt Q07866)	-0.226	-0.512
LDHD_Q86WU2_392_GYSTDVCVPISR (UniProt Q86WU2)	-0.0614	-0.00939
KPNA6_O60684_253_VSPCLPVLSR (UniProt O60684)	0.0596	-0.236
KMT2D_O14686_414_EPGPLQCEAK (UniProt O14686)	-0.276	-0.348
LAP3_P28838_445_QVVDCQLADVNNIGK (UniProt P28838)	0.0354	0.0552
KYAT3_Q6YP21_337_RMDDPECYFNSLPK (UniProt Q6YP21)	-0.0175	-0.0756
LDLR_P01130_377_CQCEEGFQLDPHTK (UniProt P01130)	0.141	0.118
LARP4_Q71RC2_65_VWQEIAPGNTDATPVTHGTESSWHEIAATSGAHPEGNAELSEDICK (UniProt Q71RC2)	0.191	0.0296
LCMT1_Q9UIC8_250_QCDLAGVETCK (UniProt Q9UIC8)	0.0905	-0.147
KRR1_Q13601_142_ILQDDVACDIIK (UniProt Q13601)	0.0484	0.124
KPNA6_O60684_467_SGSGVNPYCGLIEEAYGLDK (UniProt O60684)	-0.141	0.0964
L3MBTL3_Q96JM7_583_HLGPHSAANCPYSEINLNK (UniProt Q96JM7)	0.168	0.0108
LCORL_Q8N3X6_193_NGSIGPSIVCK (UniProt Q8N3X6)	-0.113	-0.18
LDHA_P00338_131_YSPNCK (UniProt P00338)	0.0316	0.172
LAS1L_Q9Y4W2_316_GVTCENR (UniProt Q9Y4W2)	-0.128	0.228
KMT2B_Q9UMN6_353_VGSGQGGSPCWK (UniProt Q9UMN6)	-0.0261	-0.126
LDHD_Q86WU2_429_EDLNASGLTGSIVGHVGDGNFHCILLVNPDDAEELGR (UniProt Q86WU2)	-0.0221	-0.145
KNL1_Q8NG31_1407_GQLDCVITLHK (UniProt Q8NG31)	0.135	-0.0533
KLHL36_Q8N4N3_206_ECEHDLLQAALQWLTQQPER (UniProt Q8N4N3)	0.342	-0.0783
LARP1_Q6PKG0_1054_RCPSQSSSR (UniProt Q6PKG0)	0.0701	-0.207
KMT2B_Q9UMN6_1268_HLLECER (UniProt Q9UMN6)	0.0539	-0.143

Target	probe-labelled cysteine peptide fold change (10 µM)	probe-labelled cysteine peptide fold change (50 µM)
KLHDC3_Q9BQ90_355_LAVIQYNLDQSCLPHDIR (UniProt Q9BQ90)	0.16	0.34
L3MBTL2_Q969R5_197_AAPVSCFK (UniProt Q969R5)	-0.094	-0.0347
KLC1_Q07866_390_NNLASCYLK (UniProt Q07866)	0.196	-0.135
LAMP1_P11279_338_CNAEEHVR (UniProt P11279)	-0.214	0.0965
KIF5B_P33176_7_ADLAECNIK (UniProt P33176)	-0.027	-0.0965
KIZ_Q2M2Z5_293_CDSSSGSEGEILTR (UniProt Q2M2Z5)	0.0062	0.319
LAP3_P28838_376_LILADALCYAHTFNPK (UniProt P28838)	0.0434	0.0196
KNTC1_P50748_980_KDECEEMLK (UniProt P50748)	-0.188	0.00532
LARP1B_Q659C4_102_CQPEANKPTHNNR, A0A3B3ISF0+Q659C4	-0.115	-0.199
KPNB1_Q14974_765_ESCLEAYTGIVQGLKGDQENVHPDVMLVQPR (UniProt Q14974)	0.414	-0.185
LARS_Q9P2J5_936_PSHCTIYVAK (UniProt Q9P2J5)	0.0982	0.0707
KPNA4_O00629_122_SGILPILVHCLER (UniProt O00629)	0.21	0.372
KPNA4_O00629_57_NVPHEDICEDSDIDGDYR (UniProt O00629)	-0.294	-0.212
KPNB1_Q14974_345_QDENDDDDDWNPCK (UniProt Q14974)	0.109	-0.0163
LCP1_P13796_336_EKDDIQRAECMLQQAER (UniProt P13796)	-0.365	-0.856
L3HYPDH_Q96EM0_139+148_VNIHCPCGLVTAFVACEDGR (UniProt Q96EM0)	-0.119	-0.506
LCP1_P13796_283_WANYHLENAGCNK (UniProt P13796)	0.0317	0.184
LACTB2_Q53H82_100_SINNDTTYCIK (UniProt Q53H82)	0.0283	-0.176
KIFC1_Q9BW19_663_VNQCVIGTAQANRK (UniProt Q9BW19)	-0.016	-0.249
LAGE3_Q14657_23_GGHSCR (UniProt Q14657)	-0.138	-0.286
KIF2A_O00139_159_KSNCVK (UniProt O00139)	-0.438	-0.822

Target	probe-labelled cysteine peptide fold change (10 µM)	probe-labelled cysteine peptide fold change (50 µM)
LANCL2_Q9NS86_350_EAMECSDVIWQR (UniProt Q9NS86)	-0.222	0.0818
KLHDC4_Q8TBB5_58_TQTVELPCPPPSPR (UniProt Q8TBB5)	0.013	0.0378
LANCL2_Q9NS86_169_SDCESQECVTK (UniProt Q9NS86)	0.142	-0.125
LARS_Q9P2J5_92_CCLFPFGLHCTGMPIK (UniProt Q9P2J5)	-0.106	-0.288
KTN1_Q86UP2_1105_ECMAGTSGSEEVK (UniProt Q86UP2)	-0.0527	-0.372
KLHL15_Q96M94_588_LDGLQVCNLHFPDYVLDEVRR (UniProt Q96M94)	0.111	-0.0682
LAMC1_P11047_447_CQPGFHSLTEAGCRPCSCDPSGSIDECNIETGR (UniProt P11047)	0.07	0.0163
LENG8_Q96PV6_600_EKQDYAFACEQMK (UniProt Q96PV6)	0.0437	-0.171
KYNU_Q16719_401_GCQLTITFSVPNK (UniProt Q16719)	0.17	0.0566
KLC4_Q9NSK0_489_LEAAETLEECALR (UniProt Q9NSK0)	-0.0912	0.046
KYNU_Q16719_425_GVVCDK (UniProt Q16719)	-0.0714	-0.329
KPNA4_O00629_417_KDQVAYLIQQNVIPPFCNLLTVK (UniProt O00629)	0.359	-0.054
LAMTOR5_O43504_66_LTSDPTDIPVVCLESDNGNIMIQK (UniProt O43504)	-0.0338	0.00926
L3MBTL2_Q969R5_531_LFNMDCPNHGFK (UniProt Q969R5)	-0.147	-0.344
KMT2C_Q8NEZ4_4403_CCFCHEEGDGLTDGPAR (UniProt Q8NEZ4)	-0.034	0.0495
KPNB1_Q14974_667_NYAEYQVCLAAVGLVGDLCR (UniProt Q14974)	0.365	-0.0434
LACTB2_Q53H82_58_RILIDTGEPAIPEYISCLK (UniProt Q53H82)	-0.124	-0.253
LACTB2_Q53H82_58_ILIDTGEPAIPEYISCLK (UniProt Q53H82)	0.2	0.0902
LCP1_P13796_101_KEGICAIGGTSEQSSVGTQHSYSEEEK (UniProt P13796)	-0.345	-0.236
L3MBTL2_Q969R5_368_LLYEDGDSDDDFWCHMWSPLIHPVGWSR (UniProt Q969R5)	0.342	0.38
LARS_Q9P2J5_248_DGQPCMDHDR (UniProt Q9P2J5)	-0.00101	0.12

Target	probe-labelled cysteine peptide fold change (10 µM)	probe-labelled cysteine peptide fold change (50 µM)
LCOR_Q96JN0-3_968_NAHIPSESIACK (UniProt Q96JN0)	-0.159	-0.217
KNTC1_P50748_1825_WLCPSTKPGEKPSELFELQEDEALRR (UniProt P50748)	0.0635	-0.0869
KIFC1_Q9BW19_485_KGQGGECEIR (UniProt Q9BW19)	0.112	0.254
L3HYPDH_Q96EM0_137+148_VNIHCPCGLVTAFVACEDGR (UniProt Q96EM0)	0.107	-0.514
KLC1_Q07866_436_EFGSVDDENKPIWMHAEEREECK (UniProt Q07866)	0.102	-0.19
KMT2B_Q9UMN6_1447_QLHPGPCGLQAVSQR (UniProt Q9UMN6)	0.0605	-0.028
KPNB1_Q14974_392_DAAVMAFGCILEGPEPSQLK (UniProt Q14974)	0.132	0.441
KMT2D_O14686_5338_HPLMELPLMINPTGCAR (UniProt O14686)	0.154	0.341
LCMT1_Q9UIC8_316+318_HYCLCWATK (UniProt Q9UIC8)	0.146	-0.518
LARP4_Q71RC2_76_EYEVMYSSSCETTR (UniProt Q71RC2)	-0.125	0.00753
KNL1_Q8NG31_253_CSAFPDVPDK (UniProt Q8NG31)	-0.0817	-0.952
LAMP5_Q9UJQ1_182_SYECQAQQTISLASSDPQK (UniProt Q9UJQ1)	-0.186	-0.0471
KLHDC4_Q8TBB5_58_RTQTVELPCPPPSPR (UniProt Q8TBB5)	-0.0752	0.0225
KLHL7_Q8IXQ5_259_TVQAEPLIQDNPECLK (UniProt Q8IXQ5)	0.232	-0.0285
KLC1_Q07866-4_621_NNCLADSR (UniProt Q07866)	-0.212	-0.654
LARS2_Q15031_578_FFSHFCHDQK (UniProt Q15031)	0.289	0.305
LDHB_P07195_294_GMYGIENEVFLSLPCILNAR (UniProt P07195)	0.0389	0.0679
KPNB1_Q14974_345_GALQYLVPILTQTLTKQDENDDDDDWNPCK (UniProt Q14974)	0.0867	-0.311
LANCL2_Q9NS86_248_CPLLYQWHR (UniProt Q9NS86)	-0.115	0.026
LCOR_Q96JN0-3_304_ILEGQTTGQEQDTNVNICEDGK (UniProt Q96JN0)	-0.0082	-0.0984
KIF4A_O95239_269_GLLCLGNVISALGDDKK (UniProt O95239)	-0.141	-0.159
